Assay results published in PubChem BioAssay AID743255 (National Center for Advancing Translational Sciences (NCATS), 2014).
Hit rate of the full screen: of about 390,000 compounds, about 910 (0.23%) were called active. Inconclusive means that the source gave no clear call. Such entries were picked first, then a sample of the others. Calls follow the shape of the dose curve; as a rule, active = well fitted inhibition curve with a large enough effect; inconclusive = small, poorly fitted or top-dose-only effect; inactive = no such curve, though single readings can be large or run the other way. Where the call is inconclusive, the potency comes from a doubtful curve fit.

Protein sequences, listed by entry. Tags and fused reporters are not part of them. Lines headed by an entry give the natural chain unless they say otherwise; changes in a name come on top.
UniProt O94782: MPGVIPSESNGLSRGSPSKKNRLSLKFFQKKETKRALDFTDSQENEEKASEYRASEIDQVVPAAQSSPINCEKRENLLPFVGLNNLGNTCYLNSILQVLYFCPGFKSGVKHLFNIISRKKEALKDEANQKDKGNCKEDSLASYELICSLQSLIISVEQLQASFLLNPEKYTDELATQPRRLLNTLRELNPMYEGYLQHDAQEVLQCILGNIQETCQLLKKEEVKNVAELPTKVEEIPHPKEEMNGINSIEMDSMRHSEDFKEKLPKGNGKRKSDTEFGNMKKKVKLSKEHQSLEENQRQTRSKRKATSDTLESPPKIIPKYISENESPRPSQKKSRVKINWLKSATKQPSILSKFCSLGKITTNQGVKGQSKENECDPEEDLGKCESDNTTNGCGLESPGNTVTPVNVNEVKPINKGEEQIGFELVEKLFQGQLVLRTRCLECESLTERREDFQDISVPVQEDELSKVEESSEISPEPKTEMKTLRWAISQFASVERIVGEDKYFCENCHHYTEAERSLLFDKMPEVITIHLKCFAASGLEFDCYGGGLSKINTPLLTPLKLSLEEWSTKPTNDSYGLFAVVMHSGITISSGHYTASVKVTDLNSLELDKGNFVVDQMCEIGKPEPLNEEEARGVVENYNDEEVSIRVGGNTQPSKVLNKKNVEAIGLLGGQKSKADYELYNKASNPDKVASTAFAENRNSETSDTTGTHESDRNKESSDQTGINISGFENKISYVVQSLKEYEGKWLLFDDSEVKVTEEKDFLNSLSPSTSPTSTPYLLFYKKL

The molecules below were run against Ubiquitin carboxyl-terminal hydrolase 1 (Homo sapiens) (UniProt O94782) (assay: Inhibitors of USP1/UAF1: Primary Screen). Details: recombinant USP1/UAF1, Ub-Rhodamine cleavage fluorescence; activity change, negative = inhibition: at 57.1 µM (top of the series).
In short: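 1 nM enzyme complex + cpd, 15 min RT; start with Ub-Rho 150nM final; kinetic fluorescence ex 480/em 540, 6 reads q60 s. Buffer 50mM HEPES pH 7.8, 0.5mM EDTA, 0.1 mg/ml BSA, 1mM TCEP, 0.01% Tween-20.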
% is scaled to controls: 0 for no effect and ±100 for the full control effect; potency is read from the fitted curve at half-maximal effect.
Also: nearly all actives have a fitted effect of over 60% in size.

Compound	activity change, negative = inhibition	Potency
CCN(c1ccccc1)S(=O)(=O)c1ccc(Cl)c(NC(=O)Nc2ccc(Cl)cc2C#N)c1	inactive: -12.4%	–
CCOc1cc(C(c2c(C)[nH][nH]c2=O)c2c(C)[nH][nH]c2=O)ccc1O	–	inconclusive: 35.5 µM [inhibitor, partial curve]
CN(c1ccccc1)c1ccc(/C=C(/CCC(=O)O)c2nc3ccccc3s2)cc1[N+](=O)[O-]	–	inconclusive: 8.91 µM [inhibitor, partial curve]
CCOc1ccc(-n2c(=S)sc3c(=O)[nH]c(SCC(=O)NC4CCCCC4)nc32)cc1	inactive: -26.6%	–
COC(=O)CCC(=O)OC1(C)C(=O)C2=CN(CCc3ccccn3)C(c3ccc(OC)cc3)=CC2=C(Br)C1=O (stereo not drawn)	–	inconclusive: 17.8 µM [inhibitor, partial curve]
CN1CCN(c2ccccc2NC(=O)c2ccc(-c3cccc(Cl)c3)o2)CC1	–	inconclusive: 25.1 µM [inhibitor, partial curve]
Cc1ccc(/C=C2\SC(=S)N(c3cccnc3)C2=O)o1	inactive: -12%	–
CCCN(CC1CC1)C(=S)NC(=O)c1ccccc1C	inactive: -14.3%	–
CN(C)C(=S)NC(C)(C)C	–	inconclusive: 1 µM [inhibitor, full curve]
O=C(O)CN1C(=O)/C(=C\c2cc(Br)ccc2OCc2ccc([N+](=O)[O-])cc2)SC1=S	–	inconclusive: 31.6 µM [inhibitor, partial curve]
Cc1ccc(NC(=O)CN2CCN(S(=O)(=O)c3cccs3)CC2)cc1S(=O)(=O)N(C)C	inactive: -8.81%	–
CC(=O)Oc1c(Sc2ccccc2[N+](=O)[O-])c(C)nn1C(C)(C)C	inactive: -21%	–
CCOc1ccc(NC(=O)Cn2c(=O)c(CNc3ccc(CC)cc3)cc3cc4c(cc32)OCO4)cc1	–	inconclusive: 39.8 µM [inhibitor, partial curve, poor fit]
O=C(NCCO)c1ccc2c(c1)S(=O)(=O)c1ccccc1C2=O	inactive: -11.3%	–
CSC(=O)CC(=O)NC(=O)c1ccccc1	–	inconclusive: 5.62 µM [inhibitor, full curve, poor fit]
O=C(Nc1ccccc1)C1=C[C@H](C2CCCCC2)C[C@H](OCc2ccc(CO)cc2)O1	inactive: -31%	–
CCOc1ccc(-n2nc3c(=O)n(CCN4CCCCC4)nc(C)c3c2C)cc1	–	inconclusive: 6.31 µM [inhibitor, single point]
COc1ccc(CC(=O)N2CCN(C(=O)Cc3ccc(OC)c(OC)c3)CC2)cc1OC	–	inconclusive: 0.251 µM [inhibitor, full curve, poor fit]
Cc1cc(C(=O)N/N=C/c2ccc([N+](=O)[O-])o2)c(C)o1	–	inconclusive: 50.1 µM [inhibitor, partial curve, poor fit]
CC[C@]12c3[nH]c4cc(CCC(=O)N(C)C)ccc4c3CCN1C(=O)[C@@H](CC(=O)NCCC1=CCCCC1)C[C@@H]2C(=O)N1CCN(C(=O)C2CC2)CC1	–	inconclusive: 11.2 µM [inhibitor, partial curve]
CCOC(=O)c1cc2c(=O)n3ccccc3nc2n(Cc2ccco2)c1=NC(=O)c1c(F)cccc1Cl	inactive: -23.7%	–

Compound	activity change, negative = inhibition	Potency
Cc1cc(Br)ccc1NC(=O)CN(C)C(=O)CCSc1ccc(F)cc1	inactive: -3.66%	–
CC(C)CCNC(=O)C1CCN(c2nc3ccc(Cl)cc3[nH]2)CC1	–	inconclusive: 5.01 µM [inhibitor, full curve]
Cc1ccc(S(=O)(=O)NC(C(=O)Oc2cc3oc(=O)cc(C)c3cc2Cl)C(C)C)cc1 (stereo not drawn)	–	inconclusive: 17.8 µM [inhibitor, partial curve]
Cc1cc(N2CCOCC2)n2ncc(-c3ccc(Cl)cc3)c2n1	–	inconclusive: 31.6 µM [inhibitor, partial curve, poor fit]
COc1ccc(NC(=O)Cn2c(=O)n(-c3ccc(C)cc3)c(=O)c3c2cnn3C)cc1	inactive: -24.9%	–
COc1ccccc1NS(=O)(=O)c1cc(NC(=O)c2cccnc2)ccc1N1CCCCC1	–	inconclusive: 44.7 µM [inhibitor, single point]
Cc1ccc(C)c(Cn2c(=O)cc(C)c3c(C)nn(-c4cccc(F)c4)c32)c1	inactive: 3.63%	–
COc1ccc(OC)c(-c2csc(N(CC3CCCO3)C(=O)C3CCCCC3)n2)c1 (stereo not drawn)	inactive: -22.2%	–
O=S(=O)(c1ccc(OCC(O)CN2CCN(c3ccc(F)cc3)CC2)cc1)N1CCOCC1 (stereo not drawn)	–	inconclusive: 5.62 µM [inhibitor, partial curve]
Cc1ccc(NS(=O)(=O)c2cc(C(=O)N3CCN(C)CC3)ccc2C)cc1C	inactive: -18.2%	–
COc1cccc(-n2c(=O)c3c(C)c(C)sc3n(CC(=O)NCc3ccccc3)c2=O)c1	–	inconclusive: 4.47 µM [inhibitor, partial curve]
C/C(CC(=O)Nc1ccc(Cl)c(Cl)c1)=N\NC(=O)C(=O)N1CCCCC1	–	inconclusive: 0.251 µM [inhibitor, full curve, poor fit]
COc1ccc(CCNC(=O)c2cn(C)c3ccc(S(=O)(=O)N(C)C4CCCCC4)cc3c2=O)cc1OC	–	inconclusive: 0.562 µM [inhibitor, full curve, poor fit]
COc1ccc(Nc2nc3c(S(=O)(=O)c4ccccc4)nnn3c3ccsc23)cc1OC	–	inconclusive: 7.94 µM [inhibitor, full curve, poor fit]
O=C1OC(c2ccco2)=N/C1=C\c1ccc(-c2cccc(C(F)(F)F)c2)o1	–	inconclusive: 31.6 µM [inhibitor, partial curve, poor fit]
O=C(c1ccco1)N(CC1CCCO1)c1nc(-c2ccccc2)cs1 (stereo not drawn)	–	inconclusive: 25.1 µM [inhibitor, partial curve]
Cc1ccc(/C=N/NC(=O)CN2CCN(S(=O)(=O)c3ccc(Br)cc3)CC2)s1	inactive: -27.5%	–
COc1cc(C(=O)NCCNC(=O)c2ccco2)cc(OC)c1OC	inactive: -9.69%	–
COC(=O)Cn1c(C)c(/C=C/c2cc[n+](C)cc2)c2ccccc21	–	inconclusive: 28.2 µM [inhibitor, partial curve]
CCN1CCN(CC(=O)Nc2ccc(C)cc2C)C(=O)C1=O	–	inconclusive: 44.7 µM [inhibitor, partial curve, poor fit]
CS(=O)(=O)c1ncc(Cl)c(C(=O)Nc2ccc(OC(F)F)cc2)n1	inactive: -11.6%	–

Entries of single compounds, quoted from the list.
`CCN1CCN(CC(=O)Nc2ccc(C)cc2C)C(=O)C1=O` reads Potency: inconclusive: 44.7 µM [inhibitor, partial curve, poor fit]
`Cc1ccc(S(=O)(=O)NC(C(=O)Oc2cc3oc(=O)cc(C)c3cc2Cl)C(C)C)cc1` (stereo not drawn) reads Potency: inconclusive: 17.8 µM [inhibitor, partial curve]
`O=C1OC(c2ccco2)=N/C1=C\c1ccc(-c2cccc(C(F)(F)F)c2)o1` reads Potency: inconclusive: 31.6 µM [inhibitor, partial curve, poor fit]
`O=C(c1ccco1)N(CC1CCCO1)c1nc(-c2ccccc2)cs1` (stereo not drawn) reads Potency: inconclusive: 25.1 µM [inhibitor, partial curve]

Further results follow:

Compound	activity change, negative = inhibition	Potency
CCOc1ccccc1N1CC(c2nc3ccccc3n2Cc2c(C)cc(C)cc2C)CC1=O (stereo not drawn)	–	inconclusive: 31.6 µM [inhibitor, partial curve, poor fit]
COc1cc2ccc(C(C)=NNC(N)=S)cc2cc1OC	–	inconclusive: 4.47 µM [inhibitor, partial curve]
COc1ccccc1N1CCN(S(=O)(=O)CCNC(=O)COc2ccc(C(C)C)cc2)CC1	inactive: -24%	–
CCc1ccc(N=C2NC(=O)/C(=C/c3cc(OC)c(O)c(OC)c3)S2)cc1	inactive: -20.1%	–
C[C@H]1CN([C@@H](C)CO)C(=O)CCCn2nncc2CO[C@H]1CN(C)C(=O)C1CCCCC1	–	inconclusive: 0.316 µM [inhibitor, full curve, poor fit]
CCCN(CCC)CCNC(=O)c1ccc2c(c1)NC(=O)C(CS(=O)(=O)Cc1cccc(Br)c1)N2 (stereo not drawn)	–	inconclusive: 1.58 µM [inhibitor, full curve, poor fit]
CCC(C)(C)n1nnnc1C(c1cccc(C#N)c1)N1CCN(c2cccc(C)c2C)CC1 (stereo not drawn)	–	inconclusive: 20 µM [inhibitor, partial curve]
CCOc1ccc(S(=O)(=O)NCC(c2ccco2)S(=O)(=O)c2ccc(F)cc2)cc1 (stereo not drawn)	–	inconclusive: 0.282 µM [inhibitor, full curve, poor fit]
c1ccc(CNc2nc(-c3cccnc3)nc3ccccc23)cc1	inactive: -24.3%	–
Cc1ccc(C)c(Cn2nc(-c3cc(C)ccc3C)ccc2=O)c1	–	inconclusive: 50.1 µM [inhibitor, partial curve, poor fit]
O=C(NCCc1ccccc1)c1ccc(CSc2nc3ccncc3n2Cc2ccc(F)cc2)cc1	–	inconclusive: 25.1 µM [inhibitor, partial curve]
O=C(COc1ccccc1)N1CCN(S(=O)(=O)c2cccc([N+](=O)[O-])c2)CC1	–	inconclusive: 6.31 µM [inhibitor, partial curve]
CN(Cc1ccccc1)C(=O)c1ncn(C)c1C(=O)N(C)Cc1ccccc1	–	inconclusive: 5.01 µM [inhibitor, full curve, poor fit]
COc1cccc(CNC(=O)N2CCN(c3ccccc3)CC2)c1	–	inconclusive: 22.4 µM [inhibitor, partial curve]
O=C(Nc1ccc(Cl)cc1F)c1cc(S(=O)(=O)NCc2ccc3c(c2)OCO3)ccc1F	inactive: 7.9%	–
CCc1ccc2oc(C(=O)Nc3sc4c(c3C(=O)NC)CCCC4)cc(=O)c2c1	inactive: -31.1%	–
Cc1cccc(NC(=O)c2nc[nH]c2C(=O)N[C@@H](Cc2ccccc2)C(=O)OC(C)(C)C)c1	–	inconclusive: 50.1 µM [inhibitor, partial curve, poor fit]
CCC(=O)N(C1=C(NC)C(=O)c2ccccc2C1=O)C(C)C	–	inconclusive: 31.6 µM [inhibitor, partial curve]
COCc1cc(N2CCN(c3ccccc3F)CC2)nc(-c2ccccc2)n1	–	inconclusive: 35.5 µM [inhibitor, partial curve]
Cc1ccc(NC(=O)CN(C)C(=O)c2cccc(S(=O)(=O)N3CCc4ccccc4C3)c2)cc1	–	inconclusive: 0.126 µM [inhibitor, full curve, poor fit]
COc1ccccc1NC(=O)CSc1oc(-c2cccs2)nc1S(=O)(=O)c1ccccc1	–	inconclusive: 3.98 µM [inhibitor, partial curve]
